Patent publication US12378320B2, “Methods for treating pancreatitis” (Cold Spring Harbor Laboratory, priority 2018, dated 2025)

B1: P27641 (protein, UniProt P27641 1-732, looked up)
chain: MAWSGNKAAVVLCVDVGVAMGNSFPGEESPIEQAKKVMTMFVQRQVFSESKDEIALVLYGTDGTDNALAGKDQYQNITVCRHLMLPDFDLLEDIGNKIQPSSQQADFLDALIVCMDLIQRETIGKKFGKKHIEVFTDLSSPFSQDQLDVIICNLKKSGISLQFFLPFPIDKNGEPGERGDLDSGLDHLKPSFPQKGLTEQQKEGIRMVTRVMLSLEGEDGLDEIYSFSESLRQLCVFKKIERRSMPWPCQLTIGPNLSIKIVAYKSIVQEKFKKSWVVVDARTLKKEDIQKETVYCLNDDDETEVSKEDTIQGYRYGSDIIPFSKVDEEQMKYKSEGKCFSVLGFCKSSQVHRRFFMGHQVLKVFAAKDDEAAAVALSSLVHALDELNMVAIVRYAYDKRSNPQVGVAFPYIKDAYECLVYVQLPFMEDLRQYMFSSLKNNKKCTPTEAQLSAIDDLIDSMSLVKKNEEEDIVEDLFPTSKIPNPEFQRLYQCLLHRALHLQERLPPIQQHILNMLDPPTEMKAKCESPLSKVKTLFPLTEVIKKKNQVTAQDVFQDNHEEGPAAKKYKTEKEEDHISISSLAEGNITKVGSVNPVENFRFLVRQKIASFEEASLQLISHIEQFLDTNETLYFMKSMDCIKAFREEAIQFSEEQRFNSFLEALREKVEIKQLNHFWEIVVQDGVTLITKDEGPGSSITAEEATKFLAPKDKAKEDTTGPEEAGDVDDLLDMI
modifications: full-length
B2: Q921I9 (protein, UniProt Q921I9 1-245, looked up)
chain: MAGLELLSDQGYRIDGRRAGELRKIQARMGVFAQADGSAYIEQGNTKALAVVYGPHEIRGSRSRALPDRALVNCQYSSATFSTGERKRRPHGDRKSCEMGLQLRQTFEAAILTQLHPRSQIDIYVQVLQADGGTYAACVNAATLAVMDAGIPMRDFVCACSAGFVDGTALADLSHVEEAAGGPQLALALLPASGQIALLEMDSRLHEDHLEQVLEAAAQAARGVHTLLDLVVRQHVQEASVSLGD
modifications: full-length
B3: Q8R317 (protein, UniProt Q8R317 1-582, looked up)
chain: MAESAESGGPPGAQDSAADGGPAEPKIMKVTVKTPKEKEEFAVPENSSVQQFKEEISKRFKSHIDQLVLIFAGKILKDQDTLSQHGIHDGLTVHLVIKTQNRPQDNSAQQTNAPGSTVTSSPAPDSNPTSGSAANSSFGVGGLGGLAGLSSLGLNTTNFSELQSQMQRQLLSNPEMMVQIMENPFVQSMLSNPDLMRQLIMANPQMQQLIQRNPEISHMLNNPDIMRQTLELARNPAMMQEMMRNQDRALSNLESIPGGYNALRRMYTDIQEPMLNAAQEQFGGNPFASLVSSSSSAEGTQPSRTENRDPLPNPWAPQTSQSSPASGTTGSTTNTMSTSGGTATSTPAGQSTSGPSLVPGAGASMFNTPGMQSLLQQITENPQLMQNMLSAPYMRSMLQSLSQNPDLAAQMMLNNPLFAGNPQLQEQMRQQLPTFLQQMQNPDTLSAMSNPRAMQALLQIQQGLQTLATEAPGLIPGFTPGLAAGNSGGSSGTNAPSTAPSEDTNPQGGTAEPGHQQFIQQMLQALAGVNPQLQSPEVRFQQQLEQLSAMGFLNREANLQALIATGGDINAAIERLLGSQPS
modifications: full-length
B4: Q6ZQ38 (protein, UniProt Q6ZQ38 1-1230, looked up)
chain: MASASYHISNLLEKMTSSDKDFRFMATNDLMTELQKDSIKLDDDSERKVVKMILRLLEDKNGEVQNLAVKCLGPLVSKVKEYQVETIVDTLCTNMLSDKEQLRDISSIGLKTVIGELPPASSGSALAANVCKKITGRLTSAIAKQEDVSVQLEALDIMADMLSRQGGLLVNFHPSILTCLLPQLTSPRLAVRKRTIIALGHLVMSCGNIVFVDLIEHLLSELSKNDSMSTTRTYIQCIAAISRQAGHRIGEYLEKIIPLVVKFCNVDDDELREYCIQAFESFVRRCPKEVYPHVSTIINICLKYLTYDPNYNYDDEDEDENAMDADGGDDDDQGSDDEYSDDDDMSWKVRRAAAKCLDAVVSTRHEMLPEFYKTVSPALIARFKEREENVKADVFHAYLSLLKQTRPVQSWLCDPDAMEQGDTPLTMLQSQVPNIVKALHKQMKEKSVKTRQCCFNMLTELVNVLPGALTQHIPVLVPGIIFSLNDKSSSSNLKIDALSCLYVILCNHSPQVFHPHVQALVPPVVACVGDPFYKITSEALLVTQQLVKVIRPLDQPSSFDATPYIKDLFTCTIKRLKAADIDQEVKERAISCMGQIICNLGDNLGPDLSNTLQIFLERLKNEITRLTTVKALTLIAGSPLKIDLRPVLGEGVPILASFLRKNQRALKLGTLSALDILIKNYSDSLTAAMIDAVLDELPPLISESDMHVSQMAISFLTTLAKVYPSSLSKISGSILNELIGLVRSPLLQGGALSAMLDFFQALVVTGTNNLGYMDLLRMLTGPVYSQSTALTHKQSYYSIAKCVAALTRACPKEGPAVVGQFIQDVKNSRSTDSIRLLALLSLGEVGHHIDLSGQLELKSVILEAFSSPSEEVKSAASYALGSISVGNLPEYLPFVLQEITSQPKRQYLLLHSLKEIISSASVAGLKPYVENIWALLLKHCECAEEGTRNVVAECLGKLTLIDPETLLPRLKGYLISGSSYARSSVVTAVKFTISDHPQPIDPLLKNCIGDFLKTLEDPDLNVRRVALVTFNSAAHNKPSLIRDLLDSVLPHLYNETKVRKELIREVEMGPFKHTVDDGLDIRKAAFECMYTLLDSCLDRLDIFEFLNHVEDGLKDHYDIKMLTFLMLVRLSTLCPSAVLQRLDRLVEPLRATCTTKVKANSVKQEFEKQDELKRSAMRAVAALLTIPEAEKSPLMSEFQSQISSNPELAAIFESIQKDSSSTNLESMDTS
modifications: full-length
B5: Q9QWK4 (protein, UniProt Q9QWK4 1-352, looked up)
chain: MAPLFNLMLAILSIFVGSCFSESPTKVQLVGGAHRCEGRVEVEHNGQWGTVCDDGWDRRDVAVVCRELNCGAVIQTPRGASYQPPASEQRVLIQGVDCNGTEDTLAQCELNYDVFDCSHEEDAGAQCENPDSDLLFIPEDVRLVDGPGHCQGRVEVLHQSQWSTVCKAGWNLQVSKVVCRQLGCGRALLTYGSCNKNTQGKGPIWMGKMSCSGQEANLRSCLLSRLENNCTHGEDTWMECEDPFELKLVGGDTPCSGRLEVLHKGSWGSVCDDNWGEKEDQVVCKQLGCGKSLHPSPKTRKIYGPGAGRIWLDDVNCSGKEQSLEFCRHRLWGYHDCTHKEDVEVICTDFDV
modifications: full-length
B6: Q9JHU9 (protein, UniProt Q9JHU9 1-557, looked up)
chain: MEPAAEILVDSPDVVYSPETIEARYEYRTTRVSREGGVLRVQPRATRFTFRTARQVPRLGVMLVGWGGNNGSTLTAAVLANRLRLTWPTRTGRKEANYYGSLTQAGTVNLGLDENGREVFVPFSALLPMVAPNDLVFDGWDISSLNLAEAMRRAQVLDCGLQEQLWPHMESLRPRPSVYIPEFIAANQTARADNLIPGTRAQQLEQIRKDIRDFRSSAGLDKVIVLWTANTERFCEVVPGRNDTAENLLHTIQLGLEVSPSTLFAVASILEDCAFLNGSPQNTLVPGALELASQRHVFVGGDDFKSGQTKVKSVLVDFLIGSGLKTMSIVSYNHLGNNDGQNLSAPLQFRSKEVTKSSVVDDMVHSNHVLYAPGERPDHCVVIKYVPYVGDSKRALDEYTSELMLGGTNTLVLHNTCEDSLLAAPIMLDLVLLTELCQRVSFCTDSDPEPQGFHTVLSLLSFLFKAPLVPPGSPVVNALFRQRSCIENIFRACVGLPPQNHMLLEHKMERPGPGIKPGEVVATSPLPCKKEPTPATNGCTGDANGHPQAPTPKLSTA
modifications: full-length

test system: CA19-9 modified proteins; test: CA19-9 IP/MS (iTRAQ) of organoid conditioned media after Dox treatment; set-up: species or system mouse; settings: A217 organoid conditioned media, 0H, 5B1

Molecule | 17 0H 5B1 (CA19-9 IP/MS relative abundance)
B1 | 3.472
B2 | 1.712
B3 | 1.305
B4 | 2.632
B5 | 0.774
B6 | 1.548

same assay, conditions: A217 organoid conditioned media, 0H, NS19-9; every printed value in this column is 1

Molecule | 17 0H NS19 (CA19-9 IP/MS relative abundance)
B1 | 1
B2 | 1
B3 | 1
B4 | 1
B5 | 1
B6 | 1

same assay, conditions: A217 organoid conditioned media, 8 hours, 5B1

Molecule | 17 8H 5B1 (CA19-9 IP/MS relative abundance)
B1 | 3.891
B2 | 1.445
B3 | 0.595
B4 | 2.648
B5 | 0.455
B6 | 1.629

same assay, conditions: A217 organoid conditioned media, 8 hours, NS19-9

Molecule | 17 8H NS19 (CA19-9 IP/MS relative abundance)
B2 | 0.62
B3 | 0.684
B4 | 0.164
B5 | 0.536
B6 | 0.219

same assay, conditions: A220 organoid conditioned media, 0H, 5B1

Molecule | 20 0H 5B1 (CA19-9 IP/MS relative abundance)
B1 | 3.988
B2 | 0.996
B3 | 0.798
B4 | 1.833
B5 | 0.67
B6 | 1.283

same assay, conditions: A220 organoid conditioned media, 0H, NS19-9

Molecule | 20 0H NS19 (CA19-9 IP/MS relative abundance)
B2 | 0.471
B3 | 0.631
B4 | 0.324
B5 | 0.655
B6 | 0.08

same assay, conditions: A220 organoid conditioned media, 8 hours, 5B1

Molecule | 20 8H 5B1 (CA19-9 IP/MS relative abundance)
B1 | 5.176
B2 | 1.83
B3 | 1.503
B4 | 2.094
B5 | 0.55
B6 | 1.42

same assay, conditions: A220 organoid conditioned media, 8 hours, NS19-9

Molecule | 20 8H NS19 (CA19-9 IP/MS relative abundance)
B2 | 0.54
B3 | 0.572
B4 | 0.369
B5 | 0.456
B6 | 0.159
